# Some of the results follow.
# B1: EUL D1A second (Oryza sativa) (protein)
# chain: GAATACTIGGVPVHTVRVFSAAGEDYCLTVRNGTACLAPKNPRDDYQHWIKDMRHSNKIRDEEGYPAFALVNKVTGEAIKHSTGQGHPVKLVPYNPEYQDESVLWTESKDVGKGFRCIRMVNNIYLNFDAFHGDKDHGGIHDGTEIVLWKWCEGDNQRWKILPWILEQKLISEEDLNSAVDHHHHHH
# How the values were obtained:
# Assay in all cases: glycan array binding signal (z-score within array); higher = stronger binding
# Conditions in all cases: glycan notation: IUPAC condensed, linker removed
# [1] = target: Neu5Ac(a2-3)Gal(b1-4)GlcNAc(b1-2)[Neu5Ac(a2-3)Gal(b1-4)GlcNAc(b1-4)]Man(a1-3)[GlcNAc(b1-4)][Neu5Ac(a2-3)Gal(b1-4)GlcNAc(b1-2)[Neu5Ac(a2-3)Gal(b1-4)GlcNAc(b1-6)]Man(a1-6)]Man(b1-4)GlcNAc(b1-4)GlcNAc
# Procedure, shortened: (§1)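 The binding signal is a Z-score computed within each array and averaged over linkers. Arrays of the same protein sequence at different concentrations or buffers were also averaged together. Data originate from 3228 arrays in the Consortium for Functional Glycomics database, kept only where the protein sequence was available.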
# [2] = target: Neu5Ac(a2-3)Gal(b1-4)GlcNAc(b1-2)[Neu5Ac(a2-3)Gal(b1-4)GlcNAc(b1-4)]Man(a1-3)[GlcNAc(b1-4)][Neu5Ac(a2-3)Gal(b1-4)GlcNAc(b1-4)Man(a1-6)]Man(b1-4)GlcNAc(b1-4)GlcNAc
# Procedure, shortened: as §1
# [3] = target: Neu5Ac(a2-3)Gal(b1-4)GlcNAc(b1-2)[Neu5Ac(a2-3)Gal(b1-4)GlcNAc(b1-6)]Man(a1-6)[Neu5Ac(a2-3)Gal(b1-4)GlcNAc(b1-2)Man(a1-3)][GlcNAc(b1-4)]Man(b1-4)GlcNAc(b1-4)GlcNAc
# Procedure, shortened: as §1
# [4] = target: Neu5Ac(a2-3)Gal(b1-4)GlcNAc(b1-3)Gal
# Procedure, shortened: as §1
# [5] = target: Neu5Ac(a2-3)Gal(b1-4)GlcNAc(b1-3)Gal(b1-3)GlcNAc
# Procedure, shortened: as §1
# [6] = target: Neu5Ac(a2-3)Gal(b1-4)GlcNAc(b1-3)Gal(b1-4)GlcNAc
# Procedure, shortened: as §1
# [7] = target: Neu5Ac(a2-3)Gal(b1-4)GlcNAc(b1-3)Gal(b1-4)GlcNAc(b1-2)Man(a1-3)[Neu5Ac(a2-3)Gal(b1-4)GlcNAc(b1-3)Gal(b1-4)GlcNAc(b1-2)Man(a1-6)]Man(b1-4)GlcNAc(b1-4)GlcNAc
# Procedure, shortened: as §1
# [8] = target: Neu5Ac(a2-3)Gal(b1-4)GlcNAc(b1-3)Gal(b1-4)GlcNAc(b1-3)Gal(b1-4)GlcNAc
# Procedure, shortened: as §1
# [9] = target: Neu5Ac(a2-3)Gal(b1-4)GlcNAc(b1-3)Gal(b1-4)GlcNAc(b1-3)Gal(b1-4)GlcNAc(b1-2)Man(a1-3)[Neu5Ac(a2-3)Gal(b1-4)GlcNAc(b1-3)Gal(b1-4)GlcNAc(b1-3)Gal(b1-4)GlcNAc(b1-2)Man(a1-6)]GalNAc
# Procedure, shortened: as §1
# [10] = target: Neu5Ac(a2-3)Gal(b1-4)GlcNAc(b1-3)Gal(b1-4)GlcNAc(b1-3)GalNAc
# Procedure, shortened: as §1
# [11] = target: Neu5Ac(a2-3)Gal(b1-4)GlcNAc(b1-3)Gal(b1-4)GlcNAc(b1-3)[Neu5Ac(a2-3)Gal(b1-4)GlcNAc(b1-3)Gal(b1-4)GlcNAc(b1-6)]GalNAc
# Procedure, shortened: as §1
# [12] = target: Neu5Ac(a2-3)Gal(b1-4)GlcNAc(b1-3)Gal(b1-4)GlcNAc(b1-6)[Gal(b1-3)]GalNAc
# Procedure, shortened: as §1
# [13] = target: Neu5Ac(a2-3)Gal(b1-4)GlcNAc(b1-3)Gal(b1-4)[Fuc(a1-3)]GlcNAc
# Procedure, shortened: as §1
# [14] = target: Neu5Ac(a2-3)Gal(b1-4)GlcNAc(b1-3)GalNAc
# Procedure, shortened: as §1
# [15] = target: Neu5Ac(a2-3)Gal(b1-4)GlcNAc(b1-3)[Neu5Ac(a2-3)Gal(b1-4)GlcNAc(b1-6)]GalNAc
# Procedure, shortened: as §1
# [16] = target: Neu5Ac(a2-3)Gal(b1-4)GlcNAc(b1-6)GalNAc
# Procedure, shortened: as §1
# [17] = target: Neu5Ac(a2-3)Gal(b1-4)GlcNAc(b1-6)[Gal(b1-3)]GalNAc
# Procedure, shortened: as §1
# [18] = target: Neu5Ac(a2-3)Gal(b1-4)GlcNAc(b1-6)[Neu5Ac(a2-3)Gal(b1-3)]GalNAc
# Procedure, shortened: as §1
# [19] = target: Neu5Ac(a2-3)Gal(b1-4)GlcNAc6S
# Procedure, shortened: as §1
# [20] = target: Neu5Ac(a2-3)Gal(b1-4)[Fuc(a1-3)]GlcNAc
# Procedure, shortened: as §1
# [21] = target: Neu5Ac(a2-3)Gal(b1-4)[Fuc(a1-3)]GlcNAc(b1-2)Man
# Procedure, shortened: as §1
# [22] = target: Neu5Ac(a2-3)Gal(b1-4)[Fuc(a1-3)]GlcNAc(b1-3)Gal
# Procedure, shortened: as §1
# [23] = target: Neu5Ac(a2-3)Gal(b1-4)[Fuc(a1-3)]GlcNAc(b1-3)Gal(b1-4)GlcNAc
# Procedure, shortened: as §1
# [24] = target: Neu5Ac(a2-3)Gal(b1-4)[Fuc(a1-3)]GlcNAc(b1-3)Gal(b1-4)[Fuc(a1-3)]GlcNAc(b1-3)Gal(b1-4)[Fuc(a1-3)]GlcNAc
# Procedure, shortened: as §1
# [25] = target: Neu5Ac(a2-3)Gal(b1-4)[Fuc(a1-3)]GlcNAc(b1-3)GalNAc
# Procedure, shortened: as §1
# [26] = target: Neu5Ac(a2-3)Gal(b1-4)[Fuc(a1-3)]GlcNAc(b1-6)[Gal(b1-3)]GalNAc
# Procedure, shortened: as §1
# [27] = target: Neu5Ac(a2-3)Gal(b1-4)[Fuc(a1-3)]GlcNAc(b1-6)[Neu5Ac(a2-3)Gal(b1-3)]GalNAc
# Procedure, shortened: as §1
# [28] = target: Neu5Ac(a2-3)Gal(b1-4)[Fuc(a1-3)]GlcNAc6S
# Procedure, shortened: as §1
# [29] = target: Neu5Ac(a2-3)Gal6S(b1-4)GlcNAc
# Procedure, shortened: as §1
# [30] = target: Neu5Ac(a2-3)Gal6S(b1-4)[Fuc(a1-3)]GlcNAc
# Procedure, shortened: as §1
# Neu5Ac(a2-3)GalNAc = target: Neu5Ac(a2-3)GalNAc
# Procedure, shortened: as §1
# [31] = target: Neu5Ac(a2-3)GalNAc(b1-4)GlcNAc
# Procedure, shortened: as §1
# [32] = target: Neu5Ac(a2-3)[GalNAc(b1-4)]Gal(b1-4)Glc
# Procedure, shortened: as §1
# [33] = target: Neu5Ac(a2-3)[GalNAc(b1-4)]Gal(b1-4)GlcNAc
# Procedure, shortened: as §1
# [34] = target: Neu5Ac(a2-3)[GalNAc(b1-4)]Gal(b1-4)GlcNAc(b1-3)GalNAc
# Procedure, shortened: as §1
# [35] = target: Neu5Ac(a2-3)[Neu5Ac(a2-6)]GalNAc
# Procedure, shortened: as §1
# Neu5Ac(a2-6)Gal = target: Neu5Ac(a2-6)Gal
# Procedure, shortened: as §1
# [36] = target: Neu5Ac(a2-6)Gal(b1-3)GlcNAc(b1-3)[Gal(b1-4)GlcNAc(b1-6)]Gal(b1-4)Glc
# Procedure, shortened: as §1
# Neu5Ac(a2-6)Gal(b1-4)Glc = target: Neu5Ac(a2-6)Gal(b1-4)Glc
# Procedure, shortened: as §1
# [37] = target: Neu5Ac(a2-6)Gal(b1-4)GlcNAc
# Procedure, shortened: as §1
# [38] = target: Neu5Ac(a2-6)Gal(b1-4)GlcNAc(b1-2)Man
# Procedure, shortened: as §1
# [39] = target: Neu5Ac(a2-6)Gal(b1-4)GlcNAc(b1-2)Man(a1-3)Man(b1-4)GlcNAc(b1-4)GlcNAc
# Procedure, shortened: as §1
# [40] = target: Neu5Ac(a2-6)Gal(b1-4)GlcNAc(b1-2)Man(a1-3)[Gal(b1-4)GlcNAc(b1-2)Man(a1-6)]Man(b1-4)GlcNAc(b1-4)GlcNAc
# Procedure, shortened: as §1
# [41] = target: Neu5Ac(a2-6)Gal(b1-4)GlcNAc(b1-2)Man(a1-3)[GlcNAc(b1-2)Man(a1-6)]Man(b1-4)GlcNAc(b1-4)GlcNAc
# Procedure, shortened: as §1
# [42] = target: Neu5Ac(a2-6)Gal(b1-4)GlcNAc(b1-2)Man(a1-3)[GlcNAc(b1-4)][Neu5Ac(a2-6)Gal(b1-4)GlcNAc(b1-2)Man(a1-6)]Man(b1-4)GlcNAc(b1-4)GlcNAc
# Procedure, shortened: as §1
binder,measurement,setting,value
B1,glycan array binding signal (z-score),[1],-0.083
same,glycan array binding signal (z-score),[2],-0.325
same,glycan array binding signal (z-score),[3],-0.623
same,glycan array binding signal (z-score),[4],-0.076
same,glycan array binding signal (z-score),[5],-0.69
same,glycan array binding signal (z-score),[6],-0.145
same,glycan array binding signal (z-score),[7],0.94
same,glycan array binding signal (z-score),[8],-0.348
same,glycan array binding signal (z-score),[9],3.53
same,glycan array binding signal (z-score),[10],-0.203
same,glycan array binding signal (z-score),[11],-0.67
same,glycan array binding signal (z-score),[12],0.745
same,glycan array binding signal (z-score),[13],-0.192
same,glycan array binding signal (z-score),[14],-1.44
same,glycan array binding signal (z-score),[15],0.851
same,glycan array binding signal (z-score),[16],-0.07
same,glycan array binding signal (z-score),[17],-0.393
same,glycan array binding signal (z-score),[18],-0.368
same,glycan array binding signal (z-score),[19],1.35
same,glycan array binding signal (z-score),[20],-1.4
same,glycan array binding signal (z-score),[21],-0.015
same,glycan array binding signal (z-score),[22],-0.509
same,glycan array binding signal (z-score),[23],1.72
same,glycan array binding signal (z-score),[24],-0.112
same,glycan array binding signal (z-score),[25],2.61
same,glycan array binding signal (z-score),[26],1.2
same,glycan array binding signal (z-score),[27],1
same,glycan array binding signal (z-score),[28],-1.07
same,glycan array binding signal (z-score),[29],-0.317
same,glycan array binding signal (z-score),[30],-2.23
same,glycan array binding signal (z-score),Neu5Ac(a2-3)GalNAc,0.166
same,glycan array binding signal (z-score),[31],-0.477
same,glycan array binding signal (z-score),[32],-1.43
same,glycan array binding signal (z-score),[33],-0.224
same,glycan array binding signal (z-score),[34],0.459
same,glycan array binding signal (z-score),[35],-0.898
same,glycan array binding signal (z-score),Neu5Ac(a2-6)Gal,0.222
same,glycan array binding signal (z-score),[36],0.694
same,glycan array binding signal (z-score),Neu5Ac(a2-6)Gal(b1-4)Glc,0.113
same,glycan array binding signal (z-score),[37],-0.437
same,glycan array binding signal (z-score),[38],-1.55
same,glycan array binding signal (z-score),[39],0.287
same,glycan array binding signal (z-score),[40],-0.317
same,glycan array binding signal (z-score),[41],-0.124
same,glycan array binding signal (z-score),[42],0.522

# Reprinted at random: two entries already listed.
binder,measurement,setting,value
B1,glycan array binding signal (z-score),[30],-2.23
same,glycan array binding signal (z-score),[9],3.53
